Experiment [1] deals with Trop2 antigen (UniProt P09758). Briefly: ELISA, antigen coated, anti-human IgG HRP detection. (In general: In an ELISA, binding on a coated surface is turned into a signal by an enzyme label.)
The target of experiment [2] is AXL antigen (UniProt P30530). The experiment is described as above.

The chains behind the UniProt entries cited, without tags or fusion partners. Residues count along the entry.
UniProt P09758, residues 27-274: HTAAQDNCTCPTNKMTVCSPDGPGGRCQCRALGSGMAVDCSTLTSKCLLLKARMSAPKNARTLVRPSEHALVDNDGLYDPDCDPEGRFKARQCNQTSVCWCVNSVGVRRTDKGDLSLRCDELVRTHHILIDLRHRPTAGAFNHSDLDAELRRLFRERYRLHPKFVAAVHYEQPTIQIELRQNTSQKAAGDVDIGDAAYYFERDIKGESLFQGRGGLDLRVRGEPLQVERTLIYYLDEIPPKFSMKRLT
UniProt P30530, residues 26-449: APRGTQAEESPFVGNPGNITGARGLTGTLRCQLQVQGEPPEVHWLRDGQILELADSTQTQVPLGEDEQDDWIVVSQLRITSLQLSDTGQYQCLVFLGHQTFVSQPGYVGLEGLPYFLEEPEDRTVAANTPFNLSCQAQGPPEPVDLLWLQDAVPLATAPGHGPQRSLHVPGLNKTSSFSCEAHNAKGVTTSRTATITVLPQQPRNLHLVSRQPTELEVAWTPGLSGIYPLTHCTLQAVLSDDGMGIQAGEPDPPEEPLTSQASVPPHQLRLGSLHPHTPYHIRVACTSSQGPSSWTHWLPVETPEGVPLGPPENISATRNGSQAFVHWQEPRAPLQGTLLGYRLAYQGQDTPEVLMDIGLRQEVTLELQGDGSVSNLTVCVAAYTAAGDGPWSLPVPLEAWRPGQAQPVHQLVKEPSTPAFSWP

Results are given in words; binding and its absence hold for the method and conditions named. Some binding calls cover weakened binding; strength is not graded here.

B1: anti-Trop2 antibody SG701 (antibody, human IgG1, kappa, V domains shown)
VH: QVQLVQSGAEVKKPGASVKVSCKASGYTFTNNYIHWVRQAPGQGLEWMGMINPSGGSTTYAQKFQGRLTMTRDTSTSTVYMDLSSLRSEDTAVYYCARAALSYYSIVTAKDYGMDVWGQGTTVTVSS
VL: DIQLTQSPSSVSASVGDRVNITCRASQGISSWLAWYQQKPGKAPKLLIYDASNLEAGVPSRFRGSGSGTDFTFTITSLQPEDIATYFCQQYGDFPLTFGQGTKLEIKR
As to B1, the binding entry in experiment [1] is reported as “binds”.

B2: anti-AXL antibody C6G12 (antibody, human IgG1, kappa, V domains shown)
VH: QVQLKQSGPGLVKPSQSLSLTCSVTGFSISSGYYWNWIRQFPGNKLEWMGYRSYDGSNNYNPSLKNRISITRDTSKNQFFLKLNSVTTEDTATYYCARGWLLHYTMDYWGQGTSVTVSS
VL: ELVMTQSPFSNAVTLGTSASISCRSSRSLLHSNGFTYLYWYLQKPGQSPQLLIYQMSNLASGVPDRFSSSGSGTDFTLRISRVEAEDVGVYYCGQNLELPLTFGAGTKLELKR
As to B2, the binding entry in experiment [2] is given as “binds”.

The values above are taken from patent publication US20210317230A1.
